Here are results for one molecule from patent US20100168087A1, “BENZO[1,2,3]THIADIAZINE DERIVATES” (priority 2006, published 2010).

One data set concerns male Sprague-Dawley rats. In words: elevated maze test in the rat. It counts as in vivo. The conditions noted are these: per os, 60-min pretreatment, 5-min measurement, time spent in the open arms and number of entries into the open arms. The method, then: Pharmacological activity of the compounds of the general Formula (I) has been evaluated in elevated maze test in the rat.
The tests were carried out according to the method of S. Pellow and coworkers (J. Neurosci. Methods. 1985, 14, 149-167). During the test, a wooden-floor cross elevated by 50 cm from the floor was used. The length and the width of the arms of the cross were 100 and 15 cm, respectively. Two opposite arms of the cross are fitted at the ends and both sides with black plexyglass wall of 40 cm height (closed arms).
The central section of the cross measuring 15 by 15 cm is open. The other two opposite arms of the cross are not provided with walls (open arms).
The tests were carried out in male Sprague-Dawley rats weighing 200 to 220 g. After the 60-min pretreatment time (per os treatment), the animal was placed in the center of the maze. During the 5-min measurement time, four variables were recorded: the time spent in the open arms; the time spent in the closed arms; the number of entries into the open arms; the number of entries into the closed arms.
Animals normally avoid the open and light parts of the maze, thereby spending little time therein only. […] The minimum effective dose (MED) was determined for each tested compounds regarding the time spent in the open arms and the number of entries into the open arms. […]

In general, melting point refers to the temperature of the solid-liquid transition. `CC1=NN(C)S(=O)(=O)c2c1ccc(Cl)c2Cl` [Example 17, 7,8-Dichloro-2,4-dimethylbenzo[1,2,3]thiadiazine-1,1-dioxide] registered a melting point of 220 to 222 °C. In the data set on male Sprague-Dawley rats, the “MED (minimum effective dose), anxiolytic effect in elevated maze test” value is listed as “≦0.01 mg/kg p.o”.
